Laboratory results: PubChem BioAssay AID1259415 (National Center for Advancing Translational Sciences (NCATS), 2018)
Among all 410,000 compounds or so, about 18,000 (4.4%) were called active. The inconclusive results got no clear call from the source; some entries with a clear call stand among them for comparison. Cut-off read from the data, not from the text of the source: active = activity change below about -60%; inconclusive = no clear call, values can overlap the other calls; inactive = above about -39%.

assay: qHTS Assay for inhibitors of the human cytomegalovirus (HCMV); details: HFF cells, HCMV-luciferase reporter, 72 h; at 57.5 µM; active compounds read low
Procedure, shortened: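 Luciferase read-out from HCMV-luciferase-infected HFFs (MOI 1 PFU/cell) 72 h post infection at 37C; compounds added after 16 h cell attachment; activity normalized between buffer-only basal and Salinomycin (10uM) inhibitor controls.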
% is set by controls: 0 for no effect and ±100 for the full control effect.

| Compound | activity change, negative = inhibition |
| --- | --- |
| O=C(NCc1ccccc1)c1cccn1-c1nnc(N2CCCCC2)s1 | inconclusive: 0% |
| O=C(c1ccncc1)N1CCN(c2cc(-c3ccccc3)nc3cc(-c4cccc(Cl)c4)nn23)CC1 | inactive: 6.04% |
| COc1cccc(CNC(=O)Cc2ccc(OC)c(S(=O)(=O)N3CCOCC3)c2)c1 | inactive: -32.2% |
| COc1cccc(NC(=O)Nc2ccc(CC(=O)O)cc2)c1 | inactive: -16.9% |
| O=C(NCC1CCCO1)C(c1ccccn1)N(Cc1ccccc1Cl)C(=O)CN1C(=O)c2ccccc2S1(=O)=O (stereo not drawn) | inconclusive: -41.5% |
| COc1ccccc1N(CC(=O)NCC1CCCO1)C(=O)CCC(=O)Nc1cc(C)on1 (stereo not drawn) | inconclusive: -57.9% |
| O=C(CSc1nccn1Cc1ccc2c(c1)OCO2)Nc1ccccc1F | inconclusive: -40.8% |
| CSCCC(NC(=O)c1ccco1)C(=O)N1CCCCCCC1 (stereo not drawn) | inactive: -15.3% |
| CCCn1c(=O)sc2cc(NC(=O)c3ccccc3Cl)ccc21 | inconclusive: -41.1% |
| COC(=O)[C@H]1[C@H]2C[C@@H]3c4[nH]c5cc(OC)ccc5c4CCN3C[C@H]2C[C@@H](OC(=O)c2ccc(N)cc2)[C@@H]1OC | inconclusive: -45.5% |
| COc1ccccc1CSc1ncc(-c2ccc([N+](=O)[O-])cc2)[nH]1 | inconclusive: -59.8% |
| CC1CCc2c(sc(NC(=O)CN3CCN(C(=O)c4ccco4)CC3)c2C#N)C1 (stereo not drawn) | inconclusive: -45.5% |
| CC(C)c1cccc(C(C)C)c1Nc1cn[nH]c1 | inconclusive: -40.4% |
| CC1CCN(S(=O)(=O)c2ccc(NC(=O)Cc3ccc(S(=O)(=O)N4CCOCC4)s3)cc2)CC1 | inconclusive: -57.3% |
| CC/C(=N/Nc1ccccc1)c1cnnc(-c2ccccc2)n1 | inconclusive: -44.2% |
| CC(C)C1CC(N(C)C)=CC(=S)N1 (stereo not drawn) | inconclusive: -58.9% |
| CCSc1ccccc1C(=O)N1CCN(c2nc3ccccc3s2)CC1 | active: -66.6% |
| CC(C)(C)OC(=O)N(CCc1ccccc1)Cc1cccc(OCc2cccc(NC(=O)C3CCC3)c2)c1 | inactive: -17.2% |
| COC(=O)c1cc(NC(=O)CN2CCOCC2)cc(C(=O)OC)c1 | inconclusive: -41.2% |
| CCCCc1c(CCC)c(=N)c2ccccc2n1C | active: -98.1% |
| Cc1ccc2nc(-c3ccc(NC(=O)CN4C(=O)NC(C)(c5ccc(OC(F)F)cc5)C4=O)cc3)sc2c1 (stereo not drawn) | inconclusive: -55.7% |
| COc1cc(/C=N/NC(=O)c2cccnc2)ccc1OC(=O)c1ccco1 | inconclusive: -41.9% |

| Compound | activity change, negative = inhibition |
| --- | --- |
| Cc1ccc(C(=O)NCC(c2ccc(Cl)cc2)N2CCCCC2)cc1 (stereo not drawn) | inactive: -5.24% |
| O=C(Cn1c(=O)oc2ccccc21)Nc1n[nH]c(=S)s1 | inactive: 8.2% |
| CCOC(=O)C(C)N1C(=O)S/C(=C\c2ccc(-c3ccccc3C(=O)O)o2)C1=O (stereo not drawn) | inactive: 18.4% |
| Cc1cc(Nc2ccccc2C)c2cccc(C)c2n1 | inactive: -22.7% |
| O=S(=O)(c1ccc(NC(=S)NN=Cc2ccccc2O)cc1)N1CCCCC1 | active: -61.2% |
| O=C(Cn1cnc2cc([N+](=O)[O-])ccc2c1=O)NC(c1ccccc1)c1ccccc1 | inconclusive: -43% |
| COc1ccc(Nc2nc3c(S(=O)(=O)c4ccccc4)nnn3c3ccc(Cl)cc23)cc1 | inconclusive: -42.2% |
| Cc1cccc(CN2CCN(CC(=O)NCCCN3CCN(c4ccc(F)cc4)CC3)C2=O)c1 | inconclusive: -46% |
| Cc1ccc(C(=O)NNC(=O)c2cccc(Br)c2)cc1 | inconclusive: -40.8% |
| COc1cc([N+](=O)[O-])ccc1NC(=S)Nc1cc(C(=O)OC(C)C)cc(C(=O)OC(C)C)c1 | inconclusive: -41.3% |
| CCC(CC)NC(=O)CSc1ccc(S(=O)(=O)N2CCCCC2)cn1 | inconclusive: -51.3% |
| COc1ccc(NC(=O)c2ccco2)cc1NC(=O)c1cc2ccccc2o1 | inconclusive: -40.3% |
| Cc1cc(NC(=O)CCl)no1 | active: -81.8% |
| Cc1ccc(C2(C)NC(=O)N(CC(=O)c3ccc(Cl)s3)C2=O)cc1 (stereo not drawn) | inconclusive: -59.3% |
| CNC(=O)COC(=O)c1ccccc1C(=O)c1ccc(Cl)c([N+](=O)[O-])c1 | active: -99.9% |
| CCOC(=O)c1sc(NC(=O)CSc2n[nH]c(C)n2)nc1C | inconclusive: -57.9% |
| Nc1ccc(C2(c3ccc(N)cc3)c3ccccc3-c3ccccc32)cc1 | active: -91.3% |
| CCN1CCN(c2ncc3c(n2)CC(c2ccc(OC)c(OC)c2)CC3=O)CC1 (stereo not drawn) | inconclusive: -41.9% |
| Cc1cc(C(=O)O)c(=O)[nH]c1C | inconclusive: -53.6% |
| COc1cc(OC)cc(C(=O)Nc2nc(-c3nnn(-c4ccc(C)cc4)c3C)ns2)c1 | active: -106% |
| CCOC(=O)Cc1csc(NC(=O)c2csc(C)c2)n1 | inconclusive: -40.6% |

Exported with each value named: part of the list above
Cc1cc(Nc2ccccc2C)c2cccc(C)c2n1
  activity change, negative = inhibition: inactive: -22.7%
Cc1cccc(CN2CCN(CC(=O)NCCCN3CCN(c4ccc(F)cc4)CC3)C2=O)c1
  activity change, negative = inhibition: inconclusive: -46%
COc1cc(OC)cc(C(=O)Nc2nc(-c3nnn(-c4ccc(C)cc4)c3C)ns2)c1
  activity change, negative = inhibition: active: -106%
